PubChem BioAssay AID1159578 – Peter MacCallum Cancer Centre | 2015
In all, the deposit lists about 18,000 reagents; shown is an unselected part. Of all reagents, about 1,030 (5.7%) were called active. 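Inactive calls also include pools with fewer than 3300 nuclei, whose migration was not assessed.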 The raw values are shown without normalisation. Unmarked entries are inactive. Further read-outs or replicates are left out here.

- Aim: 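siRNA pools altering how lymphatic endothelial cells close a scratch wound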 (primary screen)
- Cell system: human lymphatic endothelial cells
- Reagent: siRNA pool against human genes, 40 nM
- Time to read-out: 48 h after transfection
- Read-out: 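High-content imaging of dye-stained cells in a scratch assay measures filled wound area and nuclei per well; duplicate means given as ratio to mock and robust z-score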
- Scale: migration robust z-score: higher = faster migration into the scratch; nuclei per well: higher = more cells in the well
- Hit rule: 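Migration changed when robust z exceeds 2 or falls below -2 and mean nuclei number is at least 3300; otherwise not called changed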
- Calls: active = migration changed; inactive = no migration change, or too few cells

gene knocked down | migration robust z-score | nuclei per well, duplicate mean
PROM2 | -0.13 | 5302
AKAP14 | 0.26 | 4676
PLAA | -1.72 | 3834
SLC3A2 | 2.39 (active) | 6376
CYBA | -0.96 | 6150
PRR23B | -0.08 | 5839
LY6G6D | -0.42 | 6676
BLK | -0.73 | 5411
H4C16 | -1.87 | 5310
BLNK | -1.04 | 6016
SLC1A4 | -0.18 | 6584
ESPNL | -0.1 | 5790
SH3GLB2 | 0.51 | 6230
SYN1 | 0.42 | 5904
HRNR | -0.12 | 6163
TMEM38A | -0.74 | 6538
WDR72 | -0.7 | 5089
TGFBR3 | 0.36 | 5846
RPL10 | -0.34 | 5106
LGALS3BP | 1.01 | 3924
GPR107 | 0.44 | 6746
ABHD17B | 1.17 | 6510
SRPX | 0.91 | 5626
GABPB2 | -0.63 | 6108
BPY2B | 0.42 | 6200
DYNC1I2 | 0.68 | 5826
SLC35G5 | 0.28 | 6178
SBF1 | -0.62 | 6664
MED13L | 1.97 | 6656
USPL1 | -0.78 | 5260
SCN4A | -1.32 | 4334
WARS2 | 0.48 | 6477
ADAM20 | -0.08 | 6317
ICAM4 | -1.61 | 4604
KIF21A | -1.09 | 5202
SPTSSA | 0.52 | 6946
C10orf90 | 0.28 | 6018
FCRL5 | 1.68 | 6780
NMBR | 0.18 | 6542
THADA | 0.84 | 6362
TSHZ3 | -1.38 | 5948
TAMALIN | 0.77 | 6022
CTF1 | 0.31 | 4976
LRRTM1 | -0.42 | 5266
DTD2 | -0.64 | 4927
SEMA3A | -0.17 | 5736
CBX3 | 0.41 | 4788
UBTD2 | 2.88 (active) | 5882
GRWD1 | -0.8 | 5655
DIRAS3 | -0.13 | 5736
GTF2H2 | -0.1 | 6227
NOTCH1 | -0.15 | 5530
CXCL12 | -0.88 | 4464
OR2D3 | 1.92 | 5730
ITPRIPL2 | 0.5 | 5818
COQ10B | 0.72 | 6546
KCNIP4 | -0.36 | 5864
DNAJB2 | -0.3 | 6824
OR10J5 | -0.05 | 5989
GNPNAT1 | 0.03 | 5955
RNF126 | -0.23 | 6407
SRSF11 | 1.52 | 5799
LIN7A | 2.52 (active) | 5484
MSRB1 | -0.94 | 3611
RNF11 | -0.86 | 6190
ZC3H10 | -1.01 | 6431
SLC12A1 | -1.63 | 5423
RAB36 | -2.83 (active) | 4698
SMNDC1 | 0.15 | 5630
DLX2 | 0.08 | 6549
ALG10B | 0.33 | 6476
MYT1 | 0.52 | 3968
ESYT1 | -0.68 | 6002

Entries listed so far whose gene name begins with R or r (4):
gene knocked down | migration robust z-score | nuclei per well, duplicate mean
RPL10 | -0.34 | 5106
RNF126 | -0.23 | 6407
RNF11 | -0.86 | 6190
RAB36 | -2.83 (active) | 4698
